## Primary screen of a compound library

Measurements from “University of Dundee, Small-Polar-MMV Screening Library” (2021), ChEMBL document CHEMBL3988442.

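Viability assay of Plasmodium falciparum sporozoites; the read-out is not stated. The concentration is filed as 10 mM, unlikely as a test dose, so the dose is not known. Higher reads as lower viability (inferred: compounds with an IC50 in retests scored well above the rest). Strong results were mostly tested again. Of about 34,000 compounds tested this way, about 280 (0.84%) reached 50% or more in at least one test.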

Values are the deposited “Percent Effect”, in %.
The record does not define 0% and 100%; most values in the screen are far below 50% and negative numbers occur (in some assays of this library far below -100).
This is an unselected part of the compounds tested.

For CC(C)CNC(=O)c1ccc(NC(=O)NC2CC2)cc1Cl the result was -3.622%.
For Cn1nc(CNC(=O)c2ccc(OC(F)(F)F)cc2)c2c1CCOC2 the result was -1.164%.
For O=C(NCC1CC1)C1CN(Cc2ccncc2)Cc2ccnn2C1.O=C(O)C(F)(F)F.O=C(O)C(F)(F)F.O=C(O)C(F)(F)F (stereo not shown) the result was 0.3373%.
For COc1cc(C)cc(C(C(=O)O)N2CCN(C3CCCC3)CC2)c1OC (stereo not shown) the result was 10.3%.
For OCC1CCCCN1Cc1nc(Cc2ccccc2)no1 (stereo not shown) the result was -10.51%.
For O=C(O)C(F)(F)F.[H][C@]12CCN(CC3CC3)C(=O)[C@]1([H])CN(C1CCOCC1)C2 the result was 2.737%.
For CC(=O)Nc1nc(CN2CCCCC2Cn2cccn2)cs1 (stereo not shown) the result was -15.9%.
For Cc1cccc(Nc2nccnc2C2CCCN2CC(=O)N(C)C)n1 (stereo not shown) the result was -14.19%.
For Cc1cc(-c2nccs2)nc(C2CCN(Cc3ccc(F)cc3)CC2)n1.Cl the result was -0.09653%.
For N#CC1(C(=O)N2CCN(c3nccs3)CC2)CCCCC1 the result was 5.441%.
For CN(C)C(=O)N1CCc2c(COCC3CC3)cncc2C1 the result was 19.02%.
For CCCS(=O)(=O)N1CC(=O)N(Cc2cccc(OC)c2OC)CC(O)C1 (stereo not shown) the result was -34.06%.
For CC(C)(C)C(=O)NCCNCc1ccc(Cl)c2cccnc12 the result was 8.653%.
For [H][C@@]12CCCO[C@]1([H])[C@H](NS(C)(=O)=O)CN2C(=O)c1cnccn1 the result was 6.064%.
For c1ccc(-c2ncc(CNC3CCc4ncnn4C3)cn2)cc1 (stereo not shown) the result was -17.42%.
For [H][C@@]12CCN(CC3CC3)C[C@]1(C(=O)NCCc1ccccn1)CCO2 the result was 7.793%.
For COc1c(CNCc2cccc(Cn3cncn3)c2)c(C)nn1C the result was 2.207%.
For O=C(c1cccs1)N1CCC2(CC1)CN(c1ccsc1)C(=O)CO2 the result was 9.192%.
For O=C(O)C(F)(F)F.[H][C@@]12CCN(Cc3ccc4c(c3)OCO4)C[C@]1(C(=O)N(C)C)CCO2 the result was 7.972%.
For CN1CCOC(CNCc2cccc(OCc3ccccn3)c2)C1 (stereo not shown) the result was -1.727%.
For COc1ccc(CSCC(O)CO)c(Cl)c1 (stereo not shown) the result was -2.487%.
For CC1CCN(C(=O)C(C)N2CCc3[nH]nc(C(F)(F)F)c3C2)CC1 (stereo not shown) the result was -16.36%.
For CCc1cc(C(=O)N2CC[C@@H](c3ccc4ccccc4c3)[C@H](O)C2)[nH]n1 the result was -12.5%.
For CC(=O)N1CCc2c(nc(N(C)C)nc2NCCC2CCCCO2)C1 (stereo not shown) the result was 6.667%.
For CC1CCN(S(=O)(=O)NC2CCCCNC2=O)CC1 (stereo not shown) the result was 12.79%.
For CN1CCN(C(=O)c2cncc(CC3CCCN(C)C3)c2)CC1 (stereo not shown) the result was 6.517%.
For Cc1n[nH]c(C2CN(C(=O)CCc3ccsc3)CCO2)n1 (stereo not shown) the result was -2.243%.
For COc1cccc(-n2c(C)cc(C(=O)NC(C)(C)C(N)=O)c2C)c1 the result was 5.357%.

Repeated from the top, 3 entries:

{"structure": "CC(C)CNC(=O)c1ccc(NC(=O)NC2CC2)cc1Cl", "Percent Effect": -3.622}
{"structure": "Cn1nc(CNC(=O)c2ccc(OC(F)(F)F)cc2)c2c1CCOC2", "Percent Effect": -1.164}
{"structure": "O=C(NCC1CC1)C1CN(Cc2ccncc2)Cc2ccnn2C1.O=C(O)C(F)(F)F.O=C(O)C(F)(F)F.O=C(O)C(F)(F)F", "stereo": "stereo not shown", "Percent Effect": 0.3373}